{
  "sequences": {"note": "By UniProt entry, the sequences of proteins in these tests, tags left out.", "UniProt P52332": "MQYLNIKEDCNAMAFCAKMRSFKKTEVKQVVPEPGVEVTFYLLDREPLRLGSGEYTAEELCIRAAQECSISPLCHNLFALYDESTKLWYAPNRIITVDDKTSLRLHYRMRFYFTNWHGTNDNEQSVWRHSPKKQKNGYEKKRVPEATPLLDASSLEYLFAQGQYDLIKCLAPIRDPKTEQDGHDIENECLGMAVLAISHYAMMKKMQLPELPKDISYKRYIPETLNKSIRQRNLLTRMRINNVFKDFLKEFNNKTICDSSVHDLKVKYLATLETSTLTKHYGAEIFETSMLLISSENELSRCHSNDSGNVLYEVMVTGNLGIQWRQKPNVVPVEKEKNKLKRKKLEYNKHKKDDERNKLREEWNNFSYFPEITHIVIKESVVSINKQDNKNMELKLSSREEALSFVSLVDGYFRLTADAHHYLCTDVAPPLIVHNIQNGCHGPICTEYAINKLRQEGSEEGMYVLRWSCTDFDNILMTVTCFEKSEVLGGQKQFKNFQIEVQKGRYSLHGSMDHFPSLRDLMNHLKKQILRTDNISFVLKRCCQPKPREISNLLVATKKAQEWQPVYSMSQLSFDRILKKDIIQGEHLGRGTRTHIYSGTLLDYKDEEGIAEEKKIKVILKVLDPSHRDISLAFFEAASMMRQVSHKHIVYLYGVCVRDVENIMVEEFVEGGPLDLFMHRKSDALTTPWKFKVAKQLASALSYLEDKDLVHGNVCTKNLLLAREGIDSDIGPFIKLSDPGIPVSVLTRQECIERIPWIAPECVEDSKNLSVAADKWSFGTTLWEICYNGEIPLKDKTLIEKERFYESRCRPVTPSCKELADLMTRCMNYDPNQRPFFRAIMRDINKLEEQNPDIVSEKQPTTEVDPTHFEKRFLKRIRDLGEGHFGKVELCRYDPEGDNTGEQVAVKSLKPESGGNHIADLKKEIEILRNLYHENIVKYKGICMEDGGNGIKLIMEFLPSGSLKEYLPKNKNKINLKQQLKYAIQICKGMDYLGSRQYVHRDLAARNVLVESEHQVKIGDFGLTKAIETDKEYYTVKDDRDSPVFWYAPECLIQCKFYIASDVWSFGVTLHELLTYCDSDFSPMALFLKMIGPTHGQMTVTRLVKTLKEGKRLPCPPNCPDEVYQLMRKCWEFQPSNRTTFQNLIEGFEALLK", "UniProt Q62120": "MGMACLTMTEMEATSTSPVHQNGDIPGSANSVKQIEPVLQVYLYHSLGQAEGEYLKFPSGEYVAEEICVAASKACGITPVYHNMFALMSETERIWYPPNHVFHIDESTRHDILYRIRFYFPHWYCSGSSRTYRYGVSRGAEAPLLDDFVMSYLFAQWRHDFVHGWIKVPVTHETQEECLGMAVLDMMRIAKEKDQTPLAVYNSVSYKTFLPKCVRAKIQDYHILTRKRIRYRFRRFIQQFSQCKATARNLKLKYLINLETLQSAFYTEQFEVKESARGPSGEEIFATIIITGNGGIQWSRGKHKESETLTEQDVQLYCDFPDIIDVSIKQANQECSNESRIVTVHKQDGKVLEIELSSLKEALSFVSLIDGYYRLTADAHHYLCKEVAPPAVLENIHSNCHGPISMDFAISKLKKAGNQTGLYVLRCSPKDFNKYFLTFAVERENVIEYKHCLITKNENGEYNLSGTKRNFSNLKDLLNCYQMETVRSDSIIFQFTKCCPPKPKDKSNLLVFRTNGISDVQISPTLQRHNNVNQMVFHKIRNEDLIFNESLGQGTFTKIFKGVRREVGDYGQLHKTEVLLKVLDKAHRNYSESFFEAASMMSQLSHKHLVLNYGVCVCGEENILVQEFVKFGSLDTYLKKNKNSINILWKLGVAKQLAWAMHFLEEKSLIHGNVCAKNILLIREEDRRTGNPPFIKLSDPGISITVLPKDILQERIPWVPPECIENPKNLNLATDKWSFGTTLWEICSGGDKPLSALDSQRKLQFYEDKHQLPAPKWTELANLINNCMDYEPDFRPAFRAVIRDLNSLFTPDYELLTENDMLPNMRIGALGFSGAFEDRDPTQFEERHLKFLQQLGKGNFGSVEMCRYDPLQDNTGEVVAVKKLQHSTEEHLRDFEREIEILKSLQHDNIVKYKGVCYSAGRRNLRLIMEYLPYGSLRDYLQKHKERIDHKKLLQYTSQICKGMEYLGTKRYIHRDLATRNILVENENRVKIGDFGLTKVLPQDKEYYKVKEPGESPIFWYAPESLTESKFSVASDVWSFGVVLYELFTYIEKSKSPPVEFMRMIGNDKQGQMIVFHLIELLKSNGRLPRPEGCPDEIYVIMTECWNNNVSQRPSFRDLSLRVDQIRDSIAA"},
  "source": "paper PMC5363987",
  "molecules": {"B1": {"name": "phosphoribosyl pyrophosphate synthetase 1 (protein, UniProt Q9D7G0 1-318)", "chain": "MPNIKIFSGSSHQDLSQKIADRLGLELGKVVTKKFSNQETCVEIGESVRGEDVYIVQSGCGEINDNLMELLIMINACKIASASRVTAVIPCFPYARQDKKDKSRAPISAKLVANMLSVAGADHIITMDLHASQIQGFFDIPVDNLYAEPAVLKWIRENISEWRNCTIVSPDAGGAKRVTSIADRLNVDFALIHKERKKANEVDRMVLVGDVKDRVAILVDDMADTCGTICHAADKLLSAGATRVYAILTHGIFSGPAISRINNACFEAVVVTNTIPQEDKMKHCSKIQVIDISMILAEAIRRTHNGESVSYLFSHVPL"}},
  "molecular_target": "T1, 3xFLAG-CUZD1 (recombinant FLAG epitope-tagged CUZD1) (UniProt P70412)",
  "T1 sequence": "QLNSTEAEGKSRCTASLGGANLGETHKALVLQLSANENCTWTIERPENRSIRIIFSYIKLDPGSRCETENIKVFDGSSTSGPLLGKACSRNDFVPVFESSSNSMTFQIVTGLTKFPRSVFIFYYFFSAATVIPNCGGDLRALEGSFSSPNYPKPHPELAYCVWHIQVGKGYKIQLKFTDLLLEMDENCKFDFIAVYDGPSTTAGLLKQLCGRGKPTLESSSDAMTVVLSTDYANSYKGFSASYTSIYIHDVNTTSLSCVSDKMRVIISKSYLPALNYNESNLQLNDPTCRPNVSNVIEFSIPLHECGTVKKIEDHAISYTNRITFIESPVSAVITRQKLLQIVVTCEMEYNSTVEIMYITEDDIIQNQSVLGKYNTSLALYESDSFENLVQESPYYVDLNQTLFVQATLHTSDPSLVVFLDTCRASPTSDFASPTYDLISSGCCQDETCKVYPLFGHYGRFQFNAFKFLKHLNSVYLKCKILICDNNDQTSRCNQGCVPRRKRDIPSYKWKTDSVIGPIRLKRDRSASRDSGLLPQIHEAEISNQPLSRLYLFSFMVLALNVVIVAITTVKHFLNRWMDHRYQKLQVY",
  "assay": "affinity purification with mass spectrometry; soluble extracts of HC11-3xFLAG-Cuzd1 cells, immunoprecipitation with a FLAG antibody, LC/MS of the recovered proteins (Mascot)",
  "note": "Results are given in words; binding and its absence hold for the method and conditions named. Binding seen in cells or lysates may run through a third protein. Here binding means that the protein was enriched with, or labelled near, the bait; the list need not be complete. Tags and fused reporters may be left off the sequences shown.",
  "data": [
    {"molecule": "Janus tyrosine kinase 1 (JAK1) (from UniProt P52332 1-1153)", "values": [
      {"measurement": "binding", "value": "binds"}
    ]},
    {"molecule": "Janus tyrosine kinase 2 (JAK2) (from UniProt Q62120 1-1132)", "values": [
      {"measurement": "binding", "value": "binds"}
    ]},
    {"molecule": "B1", "values": [
      {"measurement": "binding", "value": "binds"}
    ]}
  ]
}
